Laboratory results published in the supplement of paper PMC12067093, “Discovery and optimisation of a covalent ligand for TRIM25 and its application to targeted protein ubiquitination” (Chemical Science, 2025).
This is one part of the list.

By UniProt entry, the sequences of proteins in these tests, tags left out. Where a name states a change or a piece, a line headed by the entry shows the natural chain unless it says otherwise.
UniProt P41223: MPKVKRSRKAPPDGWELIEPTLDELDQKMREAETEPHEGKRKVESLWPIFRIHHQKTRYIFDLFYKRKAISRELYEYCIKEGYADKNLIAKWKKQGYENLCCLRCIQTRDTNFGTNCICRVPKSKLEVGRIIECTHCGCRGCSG
UniProt O43684, whole entry, looked up: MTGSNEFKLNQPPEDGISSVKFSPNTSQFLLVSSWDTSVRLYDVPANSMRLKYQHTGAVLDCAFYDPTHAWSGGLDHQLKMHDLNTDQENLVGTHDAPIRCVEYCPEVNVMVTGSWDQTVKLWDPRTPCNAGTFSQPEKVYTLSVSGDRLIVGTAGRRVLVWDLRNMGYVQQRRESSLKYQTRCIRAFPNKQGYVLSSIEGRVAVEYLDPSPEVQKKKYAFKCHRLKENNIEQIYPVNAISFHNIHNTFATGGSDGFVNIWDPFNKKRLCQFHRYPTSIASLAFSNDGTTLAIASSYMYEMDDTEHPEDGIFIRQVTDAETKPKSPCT
UniProt P27708: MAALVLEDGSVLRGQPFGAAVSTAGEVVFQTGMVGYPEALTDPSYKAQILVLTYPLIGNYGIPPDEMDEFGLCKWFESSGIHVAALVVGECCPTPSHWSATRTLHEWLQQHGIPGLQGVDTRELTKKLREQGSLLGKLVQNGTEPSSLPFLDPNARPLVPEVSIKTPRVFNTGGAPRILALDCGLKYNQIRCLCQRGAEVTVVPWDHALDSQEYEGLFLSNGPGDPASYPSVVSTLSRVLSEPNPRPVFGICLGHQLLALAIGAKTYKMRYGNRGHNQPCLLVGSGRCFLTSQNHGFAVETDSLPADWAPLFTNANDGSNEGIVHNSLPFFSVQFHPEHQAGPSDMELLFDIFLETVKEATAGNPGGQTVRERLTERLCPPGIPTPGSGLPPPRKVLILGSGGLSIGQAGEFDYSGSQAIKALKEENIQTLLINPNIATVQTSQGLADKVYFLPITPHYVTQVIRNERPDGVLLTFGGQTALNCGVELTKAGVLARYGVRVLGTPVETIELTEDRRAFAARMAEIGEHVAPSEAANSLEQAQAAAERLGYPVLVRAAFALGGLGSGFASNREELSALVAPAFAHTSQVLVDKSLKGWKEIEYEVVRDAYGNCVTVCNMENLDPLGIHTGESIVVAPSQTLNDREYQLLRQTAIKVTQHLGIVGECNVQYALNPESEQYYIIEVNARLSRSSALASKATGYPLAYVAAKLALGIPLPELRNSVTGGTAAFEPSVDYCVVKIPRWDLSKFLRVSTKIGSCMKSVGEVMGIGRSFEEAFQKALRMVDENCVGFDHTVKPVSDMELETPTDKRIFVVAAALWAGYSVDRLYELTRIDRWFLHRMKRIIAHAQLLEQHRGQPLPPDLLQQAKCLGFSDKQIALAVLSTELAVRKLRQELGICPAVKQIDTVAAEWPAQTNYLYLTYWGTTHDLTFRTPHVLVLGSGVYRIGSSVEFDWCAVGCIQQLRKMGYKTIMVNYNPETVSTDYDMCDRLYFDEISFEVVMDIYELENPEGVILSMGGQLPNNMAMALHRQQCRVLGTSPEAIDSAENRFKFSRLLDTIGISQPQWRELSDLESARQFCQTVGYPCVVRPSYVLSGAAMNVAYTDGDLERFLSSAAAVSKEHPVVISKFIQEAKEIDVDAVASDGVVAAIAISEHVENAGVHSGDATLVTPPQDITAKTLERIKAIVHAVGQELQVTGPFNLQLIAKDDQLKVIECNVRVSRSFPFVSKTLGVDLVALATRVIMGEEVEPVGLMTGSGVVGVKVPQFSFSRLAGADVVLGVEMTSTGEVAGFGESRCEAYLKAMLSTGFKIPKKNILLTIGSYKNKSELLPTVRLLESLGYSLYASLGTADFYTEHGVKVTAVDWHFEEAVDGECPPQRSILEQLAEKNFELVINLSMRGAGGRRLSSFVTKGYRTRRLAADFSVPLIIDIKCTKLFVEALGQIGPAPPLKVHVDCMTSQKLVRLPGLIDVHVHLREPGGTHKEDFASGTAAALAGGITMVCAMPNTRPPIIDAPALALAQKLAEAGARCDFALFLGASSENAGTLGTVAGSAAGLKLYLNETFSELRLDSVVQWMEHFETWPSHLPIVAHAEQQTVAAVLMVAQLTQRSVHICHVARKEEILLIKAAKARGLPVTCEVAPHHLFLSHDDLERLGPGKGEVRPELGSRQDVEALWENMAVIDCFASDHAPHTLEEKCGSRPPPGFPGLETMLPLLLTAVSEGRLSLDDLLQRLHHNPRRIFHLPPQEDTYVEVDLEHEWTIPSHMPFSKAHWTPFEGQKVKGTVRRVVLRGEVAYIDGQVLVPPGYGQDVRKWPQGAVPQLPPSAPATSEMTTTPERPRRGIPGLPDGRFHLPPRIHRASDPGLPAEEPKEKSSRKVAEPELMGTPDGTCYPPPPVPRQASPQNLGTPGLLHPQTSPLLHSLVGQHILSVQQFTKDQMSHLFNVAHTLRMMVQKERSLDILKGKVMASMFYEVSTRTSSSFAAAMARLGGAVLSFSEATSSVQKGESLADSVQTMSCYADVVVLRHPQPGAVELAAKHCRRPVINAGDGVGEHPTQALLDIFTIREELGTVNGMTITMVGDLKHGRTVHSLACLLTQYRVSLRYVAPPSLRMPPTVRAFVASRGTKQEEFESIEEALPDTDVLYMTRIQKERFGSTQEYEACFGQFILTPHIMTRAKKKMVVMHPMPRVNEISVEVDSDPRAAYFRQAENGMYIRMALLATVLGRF
UniProt Q13137: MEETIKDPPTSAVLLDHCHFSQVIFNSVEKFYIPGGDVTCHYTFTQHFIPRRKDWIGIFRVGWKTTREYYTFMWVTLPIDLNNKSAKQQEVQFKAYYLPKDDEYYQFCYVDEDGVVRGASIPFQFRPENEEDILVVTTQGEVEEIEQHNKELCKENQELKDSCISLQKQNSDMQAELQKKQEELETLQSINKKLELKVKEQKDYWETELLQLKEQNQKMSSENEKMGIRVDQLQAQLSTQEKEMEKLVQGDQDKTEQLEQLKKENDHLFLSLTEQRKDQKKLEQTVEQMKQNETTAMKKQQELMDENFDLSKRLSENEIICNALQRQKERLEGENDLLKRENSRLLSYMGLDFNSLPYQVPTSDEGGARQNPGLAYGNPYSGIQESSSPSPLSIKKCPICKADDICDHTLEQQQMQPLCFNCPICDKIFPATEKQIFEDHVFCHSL
UniProt Q86VP6: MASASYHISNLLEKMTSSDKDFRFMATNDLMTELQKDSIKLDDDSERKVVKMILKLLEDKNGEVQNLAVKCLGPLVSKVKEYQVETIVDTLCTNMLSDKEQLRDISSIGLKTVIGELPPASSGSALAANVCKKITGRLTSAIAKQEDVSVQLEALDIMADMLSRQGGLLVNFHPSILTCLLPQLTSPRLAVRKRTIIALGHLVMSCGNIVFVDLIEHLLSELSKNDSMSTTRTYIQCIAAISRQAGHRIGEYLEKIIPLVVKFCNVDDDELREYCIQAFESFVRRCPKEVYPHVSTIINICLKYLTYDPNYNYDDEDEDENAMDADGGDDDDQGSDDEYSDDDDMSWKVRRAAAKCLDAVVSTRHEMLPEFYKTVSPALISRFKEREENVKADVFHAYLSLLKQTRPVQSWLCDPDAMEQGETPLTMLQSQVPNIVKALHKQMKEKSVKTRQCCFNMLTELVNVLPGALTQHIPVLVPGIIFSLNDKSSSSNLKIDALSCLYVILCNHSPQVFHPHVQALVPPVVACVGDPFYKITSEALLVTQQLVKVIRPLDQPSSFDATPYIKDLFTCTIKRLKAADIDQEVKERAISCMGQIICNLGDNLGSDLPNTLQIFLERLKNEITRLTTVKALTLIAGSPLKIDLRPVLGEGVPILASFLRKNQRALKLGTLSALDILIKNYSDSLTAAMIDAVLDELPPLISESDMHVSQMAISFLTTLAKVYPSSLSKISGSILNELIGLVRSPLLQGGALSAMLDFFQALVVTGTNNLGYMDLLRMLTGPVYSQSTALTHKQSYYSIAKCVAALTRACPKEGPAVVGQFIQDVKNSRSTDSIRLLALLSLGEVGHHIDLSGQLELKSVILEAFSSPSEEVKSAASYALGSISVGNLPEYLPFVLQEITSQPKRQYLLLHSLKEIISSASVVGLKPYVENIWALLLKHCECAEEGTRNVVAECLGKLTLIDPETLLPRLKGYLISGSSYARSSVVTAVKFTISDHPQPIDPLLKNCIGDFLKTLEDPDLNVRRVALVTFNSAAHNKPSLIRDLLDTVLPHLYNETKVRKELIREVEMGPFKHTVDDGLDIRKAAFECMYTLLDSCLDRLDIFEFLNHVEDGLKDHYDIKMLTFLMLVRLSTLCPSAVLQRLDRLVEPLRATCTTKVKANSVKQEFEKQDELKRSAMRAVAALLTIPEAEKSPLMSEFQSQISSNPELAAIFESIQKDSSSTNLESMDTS
UniProt Q13555: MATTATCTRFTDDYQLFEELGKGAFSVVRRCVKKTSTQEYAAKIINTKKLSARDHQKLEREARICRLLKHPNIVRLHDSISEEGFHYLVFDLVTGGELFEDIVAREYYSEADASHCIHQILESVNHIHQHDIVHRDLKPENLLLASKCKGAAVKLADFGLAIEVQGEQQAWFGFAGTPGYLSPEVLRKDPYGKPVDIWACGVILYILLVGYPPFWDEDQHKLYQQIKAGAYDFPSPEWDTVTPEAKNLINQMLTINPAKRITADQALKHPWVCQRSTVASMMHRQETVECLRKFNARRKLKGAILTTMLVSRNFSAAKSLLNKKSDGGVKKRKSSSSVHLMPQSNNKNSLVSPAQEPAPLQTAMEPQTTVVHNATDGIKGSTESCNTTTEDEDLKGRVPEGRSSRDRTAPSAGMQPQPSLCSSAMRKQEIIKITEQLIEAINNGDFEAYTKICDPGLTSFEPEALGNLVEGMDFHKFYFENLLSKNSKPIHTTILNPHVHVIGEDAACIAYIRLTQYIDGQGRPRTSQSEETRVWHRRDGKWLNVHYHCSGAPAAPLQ
UniProt P01024, whole entry, looked up: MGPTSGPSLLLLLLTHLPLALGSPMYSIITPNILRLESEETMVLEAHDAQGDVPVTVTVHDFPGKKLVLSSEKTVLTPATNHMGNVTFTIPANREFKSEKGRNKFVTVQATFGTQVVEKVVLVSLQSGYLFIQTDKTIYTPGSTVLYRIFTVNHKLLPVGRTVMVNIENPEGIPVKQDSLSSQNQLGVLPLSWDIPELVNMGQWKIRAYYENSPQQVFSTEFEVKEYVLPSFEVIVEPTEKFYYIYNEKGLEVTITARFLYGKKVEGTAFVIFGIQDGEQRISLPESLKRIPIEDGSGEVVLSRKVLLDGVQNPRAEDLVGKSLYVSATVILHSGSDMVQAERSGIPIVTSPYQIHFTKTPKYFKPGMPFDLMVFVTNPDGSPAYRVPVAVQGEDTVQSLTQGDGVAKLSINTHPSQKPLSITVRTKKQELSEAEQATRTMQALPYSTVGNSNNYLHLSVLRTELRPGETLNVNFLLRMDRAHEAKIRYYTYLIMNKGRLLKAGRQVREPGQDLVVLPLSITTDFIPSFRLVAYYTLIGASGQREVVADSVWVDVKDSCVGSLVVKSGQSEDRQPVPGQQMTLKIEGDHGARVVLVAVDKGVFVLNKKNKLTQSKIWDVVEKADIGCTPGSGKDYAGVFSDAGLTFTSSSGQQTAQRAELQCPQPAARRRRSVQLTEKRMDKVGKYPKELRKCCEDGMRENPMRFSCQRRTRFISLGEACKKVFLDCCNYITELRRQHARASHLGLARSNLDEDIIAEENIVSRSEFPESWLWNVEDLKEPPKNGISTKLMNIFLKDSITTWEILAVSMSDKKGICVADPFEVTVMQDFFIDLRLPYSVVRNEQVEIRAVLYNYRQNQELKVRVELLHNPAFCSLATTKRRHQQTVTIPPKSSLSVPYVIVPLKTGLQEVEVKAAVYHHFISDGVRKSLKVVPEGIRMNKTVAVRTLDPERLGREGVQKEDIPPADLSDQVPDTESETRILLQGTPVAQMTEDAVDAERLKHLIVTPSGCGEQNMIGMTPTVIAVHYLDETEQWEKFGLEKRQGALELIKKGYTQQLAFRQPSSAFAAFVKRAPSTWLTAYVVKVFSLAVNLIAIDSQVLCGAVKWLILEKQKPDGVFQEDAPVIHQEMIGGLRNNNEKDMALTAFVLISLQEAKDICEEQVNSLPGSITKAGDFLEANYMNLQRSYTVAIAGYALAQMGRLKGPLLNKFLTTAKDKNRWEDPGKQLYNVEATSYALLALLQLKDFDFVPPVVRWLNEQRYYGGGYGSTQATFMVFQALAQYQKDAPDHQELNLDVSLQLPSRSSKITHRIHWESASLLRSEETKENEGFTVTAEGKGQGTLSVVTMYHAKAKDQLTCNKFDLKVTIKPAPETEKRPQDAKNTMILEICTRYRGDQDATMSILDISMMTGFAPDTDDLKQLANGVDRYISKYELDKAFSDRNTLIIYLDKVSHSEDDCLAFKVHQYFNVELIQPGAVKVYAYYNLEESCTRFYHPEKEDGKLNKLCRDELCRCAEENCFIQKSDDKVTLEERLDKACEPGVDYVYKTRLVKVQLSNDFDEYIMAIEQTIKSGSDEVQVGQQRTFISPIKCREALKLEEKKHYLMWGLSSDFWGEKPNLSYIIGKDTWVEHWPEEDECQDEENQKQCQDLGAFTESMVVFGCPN

Compound: CC1Cc2ccccc2N1C(=O)C1CCCN(C1)C(=O)CCl (mixture of isomers) [TRIM25 ligand 11 (diastereomer mixture)]
Experiment: probe-labelled cysteine peptide fold change vs DMSO (competition) (log2 fold change); higher = less target engagement (more negative = stronger competition)
Conditions: THP-1, incubation time: 4 h
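Also: competitive chemoproteomic profiling in live THP-1 cells with an iodoacetamide desthiobiotin (IA-DTB) probe, comparing probe-labelled peptide intensities in compound-treated cells against DMSO-treated controls.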

Target	probe-labelled cysteine peptide fold change (10 µM)	probe-labelled cysteine peptide fold change (50 µM)
BTN3A3_O00478_166_GYEDGGIHLECR (UniProt O00478)	0.0138	0.127
C7orf50_Q9BRJ6_107_SGAELALDYLCR (UniProt Q9BRJ6)	0.00661	0.0359
BUD31_P41223_119_DTNFGTNCICR (UniProt P41223)	-0.0667	0.0804
CAMSAP1_Q5T5Y3_1487_SNKPIIHNAISHCCLAGK (UniProt Q5T5Y3)	-0.189	-0.182
BUB3_O43684_129_TPCNAGTFSQPEK (UniProt O43684)	-0.0896	-0.0906
CAD_P27708_897_QELGICPAVK (UniProt P27708)	0.0763	-0.0111
BRD8_Q9H0E9_26_LCLASSVMR (UniProt Q9H0E9)	-0.223	0.044
C20orf27_Q9GZN8_131_EEILLACEGGTGTCVR (UniProt Q9GZN8)	0.246	0.228
C20orf27_Q9GZN8_156_CVGAELEYDSEHSDWHGFD (UniProt Q9GZN8)	-0.00603	-0.14
CAD_P27708_787_MVDENCVGFDHTVKPVSDMELETPTDKR (UniProt P27708)	-0.00934	-0.00423
CACYBP_Q9HB71_154_TDTVLILCR (UniProt Q9HB71)	-0.142	-0.00742
C8orf88_P0DMB2_93_LSSVSICR (UniProt P0DMB2)	-0.198	-0.199
CALCOCO2_Q13137_443_QIFEDHVFCHSL (UniProt Q13137)	-0.145	-0.242
CAND1_Q86VP6_571_DLFTCTIKR (UniProt Q86VP6)	-0.101	-0.178
C20orf27_Q9GZN8_131_EGVLKEEILLACEGGTGTCVR (UniProt Q9GZN8)	-0.145	0.0943
BRCA1_P38398_1697_TDAEFVCER (UniProt P38398)	0.384	0.418
BUD31_P41223_139_IIECTHCGCR (UniProt P41223)	0.0412	-0.0128
C12orf29_Q8N999_117_EFFWNVEEDFKPAPECWIPAK (UniProt Q8N999)	0.0764	-0.16
CAMK2G_Q13555_290_QETVECLR (UniProt Q13555)	-0.000214	0.0281
BRIP1_Q9BX63_310_SCYFYHGVHK (UniProt Q9BX63)	0.051	0.0323

Individual results from the results shown:
probe-labelled cysteine peptide fold change (50 µM) with CAMK2G_Q13555_290_QETVECLR (UniProt Q13555) reads 0.0281
probe-labelled cysteine peptide fold change (10 µM) with BRCA1_P38398_1697_TDAEFVCER (UniProt P38398) reads 0.384
probe-labelled cysteine peptide fold change (10 µM) with CAND1_Q86VP6_571_DLFTCTIKR (UniProt Q86VP6) reads -0.101

Following part

Target	probe-labelled cysteine peptide fold change (10 µM)	probe-labelled cysteine peptide fold change (50 µM)
CAD_P27708_2016_GESLADSVQTMSCYADVVVLR (UniProt P27708)	-0.125	0.0475
BTN2A1_Q7KYR7_475_SHIYTCPR (UniProt Q7KYR7)	-0.00896	0.0957
BPTF_Q12830_506_VQLAELIDCLDK (UniProt Q12830)	-0.0858	0.228
C17orf53_Q8N3J3_209_VVDLSGSCQK (UniProt Q8N3J3)	-0.0206	0.0542
BRCA2_P51587_1399_AQEACHGNTSNK (UniProt P51587)	0.0546	-0.116
BZW2_Q9Y6E2_97_MTNHCVFSANEDHETIR (UniProt Q9Y6E2)	0.0541	-0.0628
BRAT1_Q6PJG6_673_THCPYAVALPEVAPAQPLTEALR (UniProt Q6PJG6)	-0.151	-0.389
C3_P01024_1637_DTWVEHWPEEDECQDEENQK (UniProt P01024)	0.059	-0.13
BRI3_O95415_78_YPANSIVVVGGCPVCR (UniProt O95415)	-0.0839	-0.117
BST1_Q10588_259_DMGFQYSCINDYRPVK (UniProt Q10588)	0.0142	0.0159
C3_P01024_873_VRVELLHNPAFCSLATTK (UniProt P01024)	0.0395	0.0214
BUB1B_O60566_767_EIELGNEDYCIKR (UniProt O60566)	-0.0942	0.0707
CA13_Q8N1Q1_232_SLLCTAEGEAAAFLVSNHRPPQPLK (UniProt Q8N1Q1)	0.0472	-0.0948
BRPF1_P55201_413_ANCYTAFHVTCAQQAGLYMK (UniProt P55201)	-0.0512	-0.203
CALCOCO2_Q13137_163_DSCISLQK (UniProt Q13137)	-0.0359	0.0121
C9orf78_Q9NZ63_145_NAEDCLYELPENIR (UniProt Q9NZ63)	-0.101	-0.43
C1GALT1_Q9NS00_232_CTHSSSIEDLALGR (UniProt Q9NS00)	0.129	-0.188
CAND1_Q86VP6_237_TYIQCIAAISR (UniProt Q86VP6)	0.19	0.181
BTAF1_O14981_862_VHTFAACAVVSLQQLPEK (UniProt O14981)	0.084	0.0713
